In patent publication US9067898B1, “Isothiazole derivatives as GPR120 agonists for the treatment of type II diabetes” (Janssen Pharmaceutica NV, priority 2014, dated 2015):
Structures were worked out from names or drawings and are uncertain.

By UniProt entry, the sequences of proteins in these tests, tags left out. Residues count along the entry.
UniProt Q5NUL3, whole entry: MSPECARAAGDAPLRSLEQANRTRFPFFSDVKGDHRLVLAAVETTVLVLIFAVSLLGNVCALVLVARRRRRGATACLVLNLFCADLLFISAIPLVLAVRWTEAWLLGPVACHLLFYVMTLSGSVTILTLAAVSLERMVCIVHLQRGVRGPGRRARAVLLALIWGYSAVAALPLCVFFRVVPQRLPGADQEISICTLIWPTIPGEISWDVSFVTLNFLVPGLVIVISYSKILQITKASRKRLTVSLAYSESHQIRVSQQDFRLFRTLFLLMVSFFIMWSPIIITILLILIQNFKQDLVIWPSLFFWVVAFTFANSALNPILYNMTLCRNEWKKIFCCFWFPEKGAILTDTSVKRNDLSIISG
UniProt Q5NUL3, 1-377 isoform 1: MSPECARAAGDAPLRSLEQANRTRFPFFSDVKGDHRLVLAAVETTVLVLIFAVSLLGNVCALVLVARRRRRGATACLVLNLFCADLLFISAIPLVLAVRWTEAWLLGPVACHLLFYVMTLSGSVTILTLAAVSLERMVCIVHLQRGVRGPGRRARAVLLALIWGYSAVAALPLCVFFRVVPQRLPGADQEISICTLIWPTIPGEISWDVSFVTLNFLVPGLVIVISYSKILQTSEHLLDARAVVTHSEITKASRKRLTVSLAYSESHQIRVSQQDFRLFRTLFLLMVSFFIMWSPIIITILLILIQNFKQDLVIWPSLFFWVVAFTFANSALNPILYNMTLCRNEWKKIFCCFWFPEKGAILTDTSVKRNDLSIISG
UniProt P32121, whole entry partner: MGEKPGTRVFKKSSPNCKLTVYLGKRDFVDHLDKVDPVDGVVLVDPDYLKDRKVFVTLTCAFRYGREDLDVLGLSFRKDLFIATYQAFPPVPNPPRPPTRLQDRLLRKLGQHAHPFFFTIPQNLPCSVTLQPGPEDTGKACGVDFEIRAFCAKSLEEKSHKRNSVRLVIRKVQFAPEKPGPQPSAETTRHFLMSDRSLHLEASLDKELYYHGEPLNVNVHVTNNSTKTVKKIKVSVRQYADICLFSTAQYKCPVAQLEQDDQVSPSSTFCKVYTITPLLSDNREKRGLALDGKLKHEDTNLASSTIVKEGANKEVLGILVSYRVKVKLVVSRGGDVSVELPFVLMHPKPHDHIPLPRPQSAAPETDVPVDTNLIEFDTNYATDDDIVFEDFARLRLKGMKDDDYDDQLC

Tests used:
Human GPR120 short form = Human GPR120 short form (Homo sapiens, UniProt Q5NUL3); experiment: Human GPR120 calcium flux assay (FLIPR), Procedure Calcium A; conditions: read-out: GPR120 Ca2+ Assay A EC50; HEK-293 cells expressing human GPR120 short form, 2500 cells/well
Source text: This in vitro assay serves to assess test compound agonist activity against the short splice variant (SVS with Accession number NM_001195755.1 confirmed by sequencing data) of the GPR120 receptor. The Human Short splice variant #2 (NM_001195755.1) is missing an in-frame coding exon compared to variant 1 (the Human Long splice variant NM_181745.3), resulting in a shorter isoform (GPR120-S) lacking a 16 aa protein segment compared to isoform GPR120-L. The assay platform utilizes HEK-293 cells stably transfected to express the Human GPR120 short form. These cells are first loaded with the Ca^+2 sensitive dye, Fluo-4 NW. Upon stimulation, intracellular released Ca^+2 can bind to the dye and alter its fluorescence intensity. This increase in fluorescence signal, and thus the flux in intracellular [Ca^2+], is detected and quantitated by fluorescence imaging using a FLIPR reader. The effect of the agonist is measured as a function of concentration and used to calculate an EC50 based upon a response curve.
In this procedure 2500 cells/well were employed. […]
The assay was performed on a FLIPR plate reader using the following parameters. Baseline was read for 10 seconds at 1 sec intervals. The program was set to transfer 10 μL of ligand from compound plate to cell plate after baseline reading. […] After compound addition, each well was read for 300 sec, with measurements collected at 1 sec intervals. […]

[1] = biological target: long form of human GPR120 (Homo sapiens, UniProt Q5NUL3); experiment: Human GPR120 DiscoveRx PathHunter Beta-Arrestin assay, Procedure β-arrestin A; conditions: read-out: hGPR120 β-arrestin A EC50, PathHunter CHO-K1 GPR120 β-Arrestin cell line, 3000 cells per well
Source text: The binding of an agonist (medium/long chain fatty acids or small molecule agonists) to the G-protein-coupled receptor GPR120 activates phospholipase C, leading to release of intracellular Ca^+2 through the generation of inositol 1,4,5-trisphosphate (InsP3 or IP3). GPR120 activation can also trigger intracellular signaling via recruitment of Beta-Arrestin. In the present method, agonist-induced activation of the human GPR120 receptor is monitored through the use of PathHunter CHO-K1 GPR120 Beta-Arrestin Cell Line engineered by DiscoveRx, as detailed below. The cell lines are designed to co-express both the ProLink/Enzyme Donor (PK)-tagged GPCR and the Enzyme […] (EA)-tagged Beta-Arrestin fusion proteins. […] This active Beta-gal complex can enzymatically hydrolyse the substrate to produce a detectable light signal; therefore, activation as a function of agonist concentration can be expressed as an EC50 value to determine relative compound activities. […]
The plates were read on an EnVision instrument, using Protocol name: Luminescence, Plate type: 384 Costar, Measurement height: 3 mm, Measurement time: 1 s, Aperture: 384 Plate aperture. The % activity relative to the positive control was calculated using the following equation: […]

Row | EC50 (Human GPR120 short form) | EC50 [1] | Structure (SMILES)
1 | 101 nM | 209 nM | O=C(O)CCc1cc(F)c(OCc2sc(F)cc2-c2ccc(Cl)cc2)c(F)c1
2 | 3230 nM |  | Cc1ccc(-c2snc(Cl)c2COc2ccc(CCC(=O)O)c(C(F)(F)F)c2)c(C)c1 [Cpd 256, 3-[4-{[3-Chloro-5-(2,4-dimethylphenyl)isothiazol-4-yl]methoxy}-2-(trifluoromethyl)phenyl]propanoic acid]
